The name of at least one read-out is uncertain.
Test: In vivo pharmacokinetic comparison in rats
Details: male Wistar rats, 60 mg/Kg
Protocol: Twelve male Wistar rats were randomly divided into ZYS-1 group and PAC-1 group. These rats were fasted for 12 hours before administration, and fed water freely. After ZYS-1 and PAC-1 needle crystal were given at the dose of 60 mg/Kg, 0.5 mL orbital blood was collected at 0, 5, 20, 30, 45, 60, 120, 180, 240, 360, 480, 720 mins, centrifuged at 5000 r/min for 5 min. 200 μL plasma was taken. The plasma was added 3 mL acetone and vortexed for 1 min. After centrifuging at 15000 r/min for 5 min, the supernatant was collected and dried under nitrogen at 37° C., to which 200 μL acetonitrile was added to be reconstituted. After sonication for 10 min, the mixture was vortexed for 1 min, and filtered through 0.45 microporous filter membrane. The filtrate was tested by HPLC, and the plasma concentration at each time point was calculated.

## C=CCc1cccc(/C=N/NC(=O)CN2CCN(Cc3ccccc3)CC2)c1O [ZYS-1, 1-Piperazineacetic acid, 4-(phenylmethyl)-2-[[2-hydroxy-3-(2-propen-1-yl)phenyl]methylene]]
  in vivo bioavailability compared with PAC-1: higher in vivo bioavailability than PAC-1

From patent publication US20180201594A1, “Compound pac-1 or salt thereof and pharmaceutical composition comprising same” (priority 2015, published 2018)
